Assay results reported in paper PMC2914660.
These are yes or no findings as the source states them, for the method shown. Binding seen in cells or lysates may run through a third protein. Some binding calls cover weakened binding; strength is not graded here.

Amino acid sequences for entries named in this document (tags omitted). A change or cut given only in a name is not applied to a line headed by its entry. Residues count along the entry.
UniProt P08238: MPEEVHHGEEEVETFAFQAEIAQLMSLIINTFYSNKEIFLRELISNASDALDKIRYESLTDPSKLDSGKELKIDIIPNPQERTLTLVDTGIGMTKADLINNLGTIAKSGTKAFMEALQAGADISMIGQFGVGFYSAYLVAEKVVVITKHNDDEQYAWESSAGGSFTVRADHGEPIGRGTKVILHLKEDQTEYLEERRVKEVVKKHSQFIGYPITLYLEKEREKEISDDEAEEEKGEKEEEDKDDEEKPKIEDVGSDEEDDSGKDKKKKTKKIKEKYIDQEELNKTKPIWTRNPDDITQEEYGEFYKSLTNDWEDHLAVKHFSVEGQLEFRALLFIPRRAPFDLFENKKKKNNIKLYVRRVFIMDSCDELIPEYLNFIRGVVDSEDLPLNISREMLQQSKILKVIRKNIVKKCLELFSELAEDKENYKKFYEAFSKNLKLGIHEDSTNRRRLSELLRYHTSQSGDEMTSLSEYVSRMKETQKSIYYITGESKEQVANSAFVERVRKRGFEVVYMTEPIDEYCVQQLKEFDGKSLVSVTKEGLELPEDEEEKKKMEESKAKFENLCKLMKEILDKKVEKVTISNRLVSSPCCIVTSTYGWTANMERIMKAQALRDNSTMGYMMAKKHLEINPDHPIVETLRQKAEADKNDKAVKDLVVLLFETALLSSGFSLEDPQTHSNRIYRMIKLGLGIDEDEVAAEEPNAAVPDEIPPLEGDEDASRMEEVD
UniProt P08253, residues 30-660: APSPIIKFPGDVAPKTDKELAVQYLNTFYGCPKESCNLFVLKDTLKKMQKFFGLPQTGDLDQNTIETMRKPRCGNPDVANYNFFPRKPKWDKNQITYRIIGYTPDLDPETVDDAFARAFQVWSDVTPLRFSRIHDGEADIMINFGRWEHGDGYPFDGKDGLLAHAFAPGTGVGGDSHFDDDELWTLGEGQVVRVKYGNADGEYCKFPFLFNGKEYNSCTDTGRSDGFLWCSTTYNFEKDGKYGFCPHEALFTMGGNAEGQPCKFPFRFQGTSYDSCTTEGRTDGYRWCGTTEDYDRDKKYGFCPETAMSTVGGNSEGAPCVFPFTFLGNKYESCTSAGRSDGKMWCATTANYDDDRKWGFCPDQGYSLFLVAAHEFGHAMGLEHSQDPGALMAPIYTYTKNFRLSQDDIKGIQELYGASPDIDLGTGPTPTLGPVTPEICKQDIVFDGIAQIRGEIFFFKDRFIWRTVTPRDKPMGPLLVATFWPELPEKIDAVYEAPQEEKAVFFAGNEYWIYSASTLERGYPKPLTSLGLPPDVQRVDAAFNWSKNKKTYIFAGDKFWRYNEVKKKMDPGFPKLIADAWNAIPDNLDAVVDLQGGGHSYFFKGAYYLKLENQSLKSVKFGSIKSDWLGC
UniProt P14780: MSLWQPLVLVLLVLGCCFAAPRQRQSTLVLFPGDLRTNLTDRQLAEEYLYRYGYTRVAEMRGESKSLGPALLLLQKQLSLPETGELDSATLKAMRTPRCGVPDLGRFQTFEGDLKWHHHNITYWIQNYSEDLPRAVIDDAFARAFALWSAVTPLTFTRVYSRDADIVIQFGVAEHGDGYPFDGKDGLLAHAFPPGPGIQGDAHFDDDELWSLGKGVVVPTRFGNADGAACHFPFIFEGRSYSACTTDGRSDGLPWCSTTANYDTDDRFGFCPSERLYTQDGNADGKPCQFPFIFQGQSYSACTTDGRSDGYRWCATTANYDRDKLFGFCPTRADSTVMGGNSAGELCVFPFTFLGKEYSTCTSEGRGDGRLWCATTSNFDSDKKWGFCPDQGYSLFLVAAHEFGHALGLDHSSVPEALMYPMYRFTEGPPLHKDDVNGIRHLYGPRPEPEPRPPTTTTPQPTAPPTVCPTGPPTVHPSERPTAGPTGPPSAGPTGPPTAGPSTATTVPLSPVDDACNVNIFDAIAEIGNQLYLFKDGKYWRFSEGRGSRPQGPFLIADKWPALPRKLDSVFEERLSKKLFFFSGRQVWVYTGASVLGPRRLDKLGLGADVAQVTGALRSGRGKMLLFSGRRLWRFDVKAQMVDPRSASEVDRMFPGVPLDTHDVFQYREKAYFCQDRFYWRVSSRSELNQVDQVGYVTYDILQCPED
pro-MMP9 (inactive pro-enzyme of matrix metalloproteinase 9) (human (endogenous in MDAMB453)): residues 20-707 of P14780

Columns and labels:
[1] = molecular target: heat shock protein 90 α isoform (HSP90α), secreted (human (endogenous in MDAMB453)) (UniProt P07900); experiment: co-IP; reverse: 100-fold concentrated culture supernatant of MDAMB453 cells immunoprecipitated with anti-HSP90α or anti-HSP90β overnight at 4°C, protein G-Sepharose; Western blot with anti-MMP2 or anti-MMP9
[2] = molecular target: heat shock protein 90 β isoform (HSP90β), secreted (human (endogenous in MDAMB453)) (UniProt P08238); experiment: as above
[3] = molecular target: pro-MMP2 (inactive pro-enzyme of matrix metalloproteinase 2) (human (endogenous in MDAMB453)) (UniProt P08253); experiment: condition: only cultures treated with 200 μg/ml mAb 4C5; co-IP; concentrated supernatant of MDAMB453 cultures exposed to 200 μg/ml mAb 4C5 for 24 h; immunoprecipitated with anti-MMP2 or anti-MMP9, protein A-Sepharose; Western blot with anti-HSP90α or anti-HSP90β
[4] = molecular target: pro-MMP9 (inactive pro-enzyme of matrix metalloproteinase 9) (human (endogenous in MDAMB453)) (UniProt P14780); experiment: as above
[5] = molecular target: pro-MMP2 (inactive pro-enzyme of matrix metalloproteinase 2) (human (endogenous in MDAMB453)) (UniProt P08253); experiment: co-IP; 100-fold concentrated serum-free culture supernatant of MDAMB453 cells (control cultures); immunoprecipitated with anti-MMP2 or anti-MMP9 overnight at 4°C, protein G-Sepharose 2 h at room temperature, washed 3 times with lysis buffer; Western blot with anti-HSP90α or anti-HSP90β
[6] = molecular target: pro-MMP9 (inactive pro-enzyme of matrix metalloproteinase 9) (human (endogenous in MDAMB453)) (UniProt P14780); experiment: as above

Substance	binding [1]	binding [2]	binding [3]	binding [4]	binding [5]	binding [6]
pro-MMP9 (inactive pro-enzyme of matrix metalloproteinase 9) (from UniProt P14780 20-707)	binds	binds	–	–	–	–
pro-MMP2 (inactive pro-enzyme of matrix metalloproteinase 2) (from UniProt P08253 30-660)	–	binds	–	–	–	–
heat shock protein 90 β isoform (HSP90β), secreted (from UniProt P08238 1-724)	–	–	no binding	no binding	binds	binds
heat shock protein 90 α isoform (HSP90α), secreted (from UniProt P07900 1-732)	–	–	–	no binding	–	binds
activated (mature) form of MMP9 (from UniProt P14780 107-707) (enzyme)	binds	binds	–	–	–	–
